Data as given in PubChem BioAssay AID1259308 (NCATS, 2017).

Purpose: 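Candidate targets for better recombinant protein yield in mammalian cells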 (primary screen)
Cells: human HEK293 embryonic kidney cells stably expressing firefly luciferase (HEK-CMV-Luc2-Hygro)
Reagents: single siRNA against human genes, 0.8 pmol siRNA per well
Timing: 72 h
Measurement: 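Reporter luminescence and viable-cell signal on separate replicate plates, given as percent of non-targeting control and median/MAD z-scores, plus per-cell luciferase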
Scale: total luciferase, z-score and total luciferase, % of control: higher = more reporter protein produced
Rule for the call: 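An siRNA counts as active if its total luciferase robust z-score exceeds 3; genes with two or more such siRNAs out of three were retested with fresh siRNAs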
Meaning of the calls: active = raised luciferase; inactive = no rise
The whole screen tested about 59,000 reagents; below is a part drawn at random. About 1,510 of them (2.6%) count as active. 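Calls use total luciferase alone and ignore viability, so some active siRNAs may act by altering cell number.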 The numbers tell different reagents against one gene apart. Not all columns of the deposit are shown.

gene | siRNA no. | total luciferase, z-score | total luciferase, % of control | Outcome
NREPP1 (NREP pseudogene 1) | 1 | -0.34 | 75.1 | inactive
NREPP1 (NREP pseudogene 1) | 2 | -0.899 | 64 | inactive
NREPP1 (NREP pseudogene 1) | 3 | 1.87 | 119 | inactive
SRRM3 (serine/arginine repetitive matrix 3) | 1 | -0.0344 | 81.2 | inactive
SRRM3 (serine/arginine repetitive matrix 3) | 2 | -0.0781 | 80.3 | inactive
SRRM3 (serine/arginine repetitive matrix 3) | 3 | 0.0791 | 83.5 | inactive
CHSY1 (chondroitin sulfate synthase 1) | 1 | 2.29 | 128 | inactive
CHSY1 (chondroitin sulfate synthase 1) | 2 | -1.19 | 58.2 | inactive
CHSY1 (chondroitin sulfate synthase 1) | 3 | 2.44 | 130 | inactive
CACNG8 (calcium voltage-gated channel auxiliary subunit gamma 8) | 1 | -1.25 | 56.9 | inactive
CACNG8 (calcium voltage-gated channel auxiliary subunit gamma 8) | 2 | 0.0126 | 82.1 | inactive
CACNG8 (calcium voltage-gated channel auxiliary subunit gamma 8) | 3 | -1.67 | 48.6 | inactive
CD58 (CD58 molecule) | 1 | -1.46 | 52.8 | inactive
CD58 (CD58 molecule) | 2 | 0.507 | 92 | inactive
CD58 (CD58 molecule) | 3 | 2.54 | 132 | inactive
DAG1 (dystroglycan 1) | 1 | -0.4 | 73.9 | inactive
DAG1 (dystroglycan 1) | 2 | 0.747 | 96.8 | inactive
DAG1 (dystroglycan 1) | 3 | 3.02 | 142 | active
ELMOD1 (ELMO domain containing 1) | 1 | 1.08 | 103 | inactive
ELMOD1 (ELMO domain containing 1) | 2 | 1.01 | 102 | inactive
ELMOD1 (ELMO domain containing 1) | 3 | -0.927 | 63.5 | inactive
ELMOD1 (ELMO domain containing 1) | 4 | -0.309 | 75.7 | inactive
ELMOD1 (ELMO domain containing 1) | 5 | 0.465 | 91.1 | inactive
ELMOD1 (ELMO domain containing 1) | 6 | 0.622 | 94.3 | inactive
LEPROT (leptin receptor overlapping transcript) | 1 | -1.35 | 55.1 | inactive
LEPROT (leptin receptor overlapping transcript) | 2 | 0.795 | 97.7 | inactive
LEPROT (leptin receptor overlapping transcript) | 3 | 0.252 | 86.9 | inactive
ADGRG6 (adhesion G protein-coupled receptor G6) | 1 | 1.95 | 121 | inactive
ADGRG6 (adhesion G protein-coupled receptor G6) | 2 | 1.91 | 120 | inactive
ADGRG6 (adhesion G protein-coupled receptor G6) | 3 | -1.3 | 56.1 | inactive
SGPP1 (sphingosine-1-phosphate phosphatase 1) | 1 | -0.257 | 76.8 | inactive
SGPP1 (sphingosine-1-phosphate phosphatase 1) | 2 | -0.194 | 78 | inactive
SGPP1 (sphingosine-1-phosphate phosphatase 1) | 3 | 1.9 | 120 | inactive
P4HTM (prolyl 4-hydroxylase, transmembrane) | 1 | -0.0197 | 81.5 | inactive
P4HTM (prolyl 4-hydroxylase, transmembrane) | 2 | -1.16 | 58.8 | inactive
P4HTM (prolyl 4-hydroxylase, transmembrane) | 3 | -0.113 | 79.6 | inactive
RPS25P6 (ribosomal protein S25 pseudogene 6) | 1 | -1.33 | 55.5 | inactive
RPS25P6 (ribosomal protein S25 pseudogene 6) | 2 | -1.44 | 53.2 | inactive
RPS25P6 (ribosomal protein S25 pseudogene 6) | 3 | -1.87 | 44.7 | inactive
IQGAP1 (IQ motif containing GTPase activating protein 1) | 1 | 0.349 | 88.8 | inactive
IQGAP1 (IQ motif containing GTPase activating protein 1) | 2 | 0.693 | 95.7 | inactive
IQGAP1 (IQ motif containing GTPase activating protein 1) | 3 | -0.153 | 78.8 | inactive
STRADBP1 (STE20-related kinase adaptor beta pseudogene 1) | 1 | -1.59 | 50.3 | inactive
STRADBP1 (STE20-related kinase adaptor beta pseudogene 1) | 2 | -0.462 | 72.7 | inactive
STRADBP1 (STE20-related kinase adaptor beta pseudogene 1) | 3 | 0.251 | 86.9 | inactive
SPNS1 (SPNS lysolipid transporter 1, lysophospholipid) | 1 | 0.869 | 99.2 | inactive
SPNS1 (SPNS lysolipid transporter 1, lysophospholipid) | 2 | 5.03 | 182 | active
SPNS1 (SPNS lysolipid transporter 1, lysophospholipid) | 3 | 0.03 | 82.5 | inactive
HNRNPH1 (heterogeneous nuclear ribonucleoprotein H1) | 1 | 0.944 | 101 | inactive
HNRNPH1 (heterogeneous nuclear ribonucleoprotein H1) | 2 | 3.02 | 142 | active
HNRNPH1 (heterogeneous nuclear ribonucleoprotein H1) | 3 | 0.862 | 99 | inactive
FRYL (FRY like transcription coactivator) | 1 | 1.03 | 102 | inactive
FRYL (FRY like transcription coactivator) | 2 | -0.549 | 71 | inactive
FRYL (FRY like transcription coactivator) | 3 | -0.226 | 77.4 | inactive
FRYL (FRY like transcription coactivator) | 4 | 1.51 | 112 | inactive
FRYL (FRY like transcription coactivator) | 5 | -0.364 | 74.7 | inactive
FRYL (FRY like transcription coactivator) | 6 | 0.612 | 94.1 | inactive
RPSAP9 (ribosomal protein SA pseudogene 9) | 1 | -2.81 | 26.1 | inactive
RPSAP9 (ribosomal protein SA pseudogene 9) | 2 | -3.02 | 21.9 | inactive
RPSAP9 (ribosomal protein SA pseudogene 9) | 3 | -1.96 | 42.9 | inactive
KMT5A (lysine methyltransferase 5A) | 1 | -0.0318 | 81.3 | inactive
KMT5A (lysine methyltransferase 5A) | 2 | 2.48 | 131 | inactive
KMT5A (lysine methyltransferase 5A) | 3 | 1.37 | 109 | inactive
WDR38 (WD repeat domain 38) | 1 | -0.42 | 73.5 | inactive
WDR38 (WD repeat domain 38) | 2 | -0.833 | 65.3 | inactive
WDR38 (WD repeat domain 38) | 3 | -0.103 | 79.8 | inactive
CKLF (chemokine like factor) | 1 | 0.527 | 92.4 | inactive
CKLF (chemokine like factor) | 2 | 0.114 | 84.2 | inactive
CKLF (chemokine like factor) | 3 | 1.18 | 105 | inactive
SENP8 (SUMO peptidase family member, NEDD8 specific) | 1 | 0.0472 | 82.8 | inactive
SENP8 (SUMO peptidase family member, NEDD8 specific) | 2 | 1 | 102 | inactive
SENP8 (SUMO peptidase family member, NEDD8 specific) | 3 | 0.709 | 96 | inactive
ITFG2 (integrin alpha FG-GAP repeat containing 2) | 1 | 1.49 | 112 | inactive
ITFG2 (integrin alpha FG-GAP repeat containing 2) | 2 | -0.848 | 65 | inactive
ITFG2 (integrin alpha FG-GAP repeat containing 2) | 3 | -0.221 | 77.5 | inactive

9 of these entries, set out differently.
CHSY1 (chondroitin sulfate synthase 1) #3
- total luciferase, z-score: 2.44
- total luciferase, % of control: 130
- Outcome: inactive

CACNG8 (calcium voltage-gated channel auxiliary subunit gamma 8) #1
- total luciferase, z-score: -1.25
- total luciferase, % of control: 56.9
- Outcome: inactive

CACNG8 (calcium voltage-gated channel auxiliary subunit gamma 8) #2
- total luciferase, z-score: 0.0126
- total luciferase, % of control: 82.1
- Outcome: inactive

CACNG8 (calcium voltage-gated channel auxiliary subunit gamma 8) #3
- total luciferase, z-score: -1.67
- total luciferase, % of control: 48.6
- Outcome: inactive

CD58 (CD58 molecule) #1
- total luciferase, z-score: -1.46
- total luciferase, % of control: 52.8
- Outcome: inactive

CD58 (CD58 molecule) #2
- total luciferase, z-score: 0.507
- total luciferase, % of control: 92
- Outcome: inactive

CD58 (CD58 molecule) #3
- total luciferase, z-score: 2.54
- total luciferase, % of control: 132
- Outcome: inactive

DAG1 (dystroglycan 1) #1
- total luciferase, z-score: -0.4
- total luciferase, % of control: 73.9
- Outcome: inactive

DAG1 (dystroglycan 1) #2
- total luciferase, z-score: 0.747
- total luciferase, % of control: 96.8
- Outcome: inactive
